Compound in this test: Nc1nc2c(ncn2[C@@H]2O[C@H](COP(=O)(O)OP(=O)(O)OP(=O)(O)O)[C@@H](O)[C@H]2O)c(=O)[nH]1 [guanosine triphosphate]
Briefly: NP40-soluble protein abundance relative to vehicle (solubility fold change) (ratio); higher = more soluble protein in presence of GTP. Here is the method:
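Solubility proteome profiling in Jurkat crude lysate. Lysate was treated with Mg-GTP (0.1-10 mM) for 10 min at room temperature and 3 min at 37 °C, then solubilised with 0.8% NP40 and benzonase, followed by ultracentrifugation. Proteins were quantified by TMT10 LC-MS/MS; the value is the NP40-soluble abundance relative to the NP40-processed vehicle, from 3 independent experiments.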

Sequences of proteins named here, by UniProt entry; tags and fusion partners are left off. A change or cut given only in a name is not applied to a line headed by its entry.
UniProt P42575: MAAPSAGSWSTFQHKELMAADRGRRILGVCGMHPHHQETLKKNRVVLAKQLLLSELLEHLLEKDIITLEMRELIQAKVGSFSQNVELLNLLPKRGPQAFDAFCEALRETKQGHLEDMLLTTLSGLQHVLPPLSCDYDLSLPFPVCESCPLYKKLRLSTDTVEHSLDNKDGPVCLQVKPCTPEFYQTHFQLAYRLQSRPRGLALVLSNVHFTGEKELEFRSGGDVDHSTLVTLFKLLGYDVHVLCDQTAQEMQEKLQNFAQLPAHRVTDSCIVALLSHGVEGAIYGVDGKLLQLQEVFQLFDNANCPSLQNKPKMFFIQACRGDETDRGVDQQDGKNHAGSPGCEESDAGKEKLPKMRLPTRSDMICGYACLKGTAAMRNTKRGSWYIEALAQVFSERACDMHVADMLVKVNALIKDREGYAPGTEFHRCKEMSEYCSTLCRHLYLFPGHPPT
UniProt P49591: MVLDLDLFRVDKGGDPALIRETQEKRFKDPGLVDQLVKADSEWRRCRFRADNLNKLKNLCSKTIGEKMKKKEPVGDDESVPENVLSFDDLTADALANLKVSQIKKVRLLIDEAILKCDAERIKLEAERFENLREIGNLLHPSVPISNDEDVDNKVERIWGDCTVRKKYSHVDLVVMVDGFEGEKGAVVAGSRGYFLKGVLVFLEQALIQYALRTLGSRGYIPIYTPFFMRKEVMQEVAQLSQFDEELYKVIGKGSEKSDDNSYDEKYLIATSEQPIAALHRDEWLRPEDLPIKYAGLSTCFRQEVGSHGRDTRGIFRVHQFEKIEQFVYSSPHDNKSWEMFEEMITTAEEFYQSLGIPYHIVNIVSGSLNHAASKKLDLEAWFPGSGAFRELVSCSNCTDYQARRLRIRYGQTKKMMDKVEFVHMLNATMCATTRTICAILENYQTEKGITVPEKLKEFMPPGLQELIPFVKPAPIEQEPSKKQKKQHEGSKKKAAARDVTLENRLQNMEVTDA
UniProt P36402, whole entry: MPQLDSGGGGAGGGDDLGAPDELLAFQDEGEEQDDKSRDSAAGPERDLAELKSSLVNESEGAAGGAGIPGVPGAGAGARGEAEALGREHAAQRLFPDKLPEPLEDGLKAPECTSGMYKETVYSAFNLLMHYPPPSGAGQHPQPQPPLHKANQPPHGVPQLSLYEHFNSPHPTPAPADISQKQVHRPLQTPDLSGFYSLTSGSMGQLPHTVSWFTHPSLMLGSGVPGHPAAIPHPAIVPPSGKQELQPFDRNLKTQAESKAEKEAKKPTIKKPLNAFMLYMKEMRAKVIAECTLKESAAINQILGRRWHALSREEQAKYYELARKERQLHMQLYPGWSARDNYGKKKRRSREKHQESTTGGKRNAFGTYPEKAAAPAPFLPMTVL
UniProt P49247: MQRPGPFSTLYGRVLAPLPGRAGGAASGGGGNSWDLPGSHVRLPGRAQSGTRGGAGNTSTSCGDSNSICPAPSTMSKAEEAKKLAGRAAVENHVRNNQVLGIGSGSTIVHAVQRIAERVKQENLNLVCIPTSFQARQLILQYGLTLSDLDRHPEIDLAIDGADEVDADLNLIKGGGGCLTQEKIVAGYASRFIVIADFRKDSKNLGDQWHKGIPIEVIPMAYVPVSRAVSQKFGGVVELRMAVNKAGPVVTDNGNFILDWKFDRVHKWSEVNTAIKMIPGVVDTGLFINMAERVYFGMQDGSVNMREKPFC

± gives the standard deviation of the averaged measurements. Some of the results follow.

On to UniProt P36507, for which the NP40-soluble protein abundance is, setting by setting: (concentration: 0.1mM) 0.969 ± 0.0035; (concentration: 0.5mM) 0.978 ± 0.017; (concentration: 1mM) 0.956 ± 0.037; (concentration: 2mM) 0.908 ± 0.044; (concentration: 4mM) 0.891 ± 0.04; (concentration: 6mM) 0.891 ± 0.083. Further, the NP40-soluble protein abundance was 0.874 ± 0.039 (concentration: 8mM) and 0.849 ± 0.065 (concentration: 10mM).
Turning to CASP2 (UniProt P42575), the NP40-soluble protein abundance runs as follows: (concentration: 0.1mM) 1.02 ± 0.02; (concentration: 0.5mM) 0.988 ± 0.07; (concentration: 1mM) 1 ± 0.036; (concentration: 2mM) 0.957 ± 0.076; (concentration: 4mM) 0.939 ± 0.04; (concentration: 6mM) 0.914 ± 0.078. Besides, the NP40-soluble protein abundance came to 0.953 ± 0.023 (concentration: 8mM) and 0.916 ± 0.062 (concentration: 10mM).
On to UniProt P49591 and related entries, for which the NP40-soluble protein abundance was 0.983 ± 0.039 (concentration: 0.1mM); 0.961 ± 0.018 (concentration: 0.5mM); 0.919 ± 0.015 (concentration: 1mM); 0.893 ± 0.035 (concentration: 2mM); 0.895 ± 0.035 (concentration: 4mM); 0.859 ± 0.024 (concentration: 6mM). For the same target, the NP40-soluble protein abundance (concentration: 8mM) worked out at 0.866 ± 0.011 and the NP40-soluble protein abundance (concentration: 10mM) is 0.846 ± 0.069.
UniProt P36402-5: the NP40-soluble protein abundance is 0.999 ± 0.14 (concentration: 0.1mM); 0.942 ± 0.087 (concentration: 0.5mM); 1.13 ± 0.28 (concentration: 1mM); 1.14 ± 0.16 (concentration: 2mM); 1.1 ± 0.15 (concentration: 4mM); 1.14 ± 0.16 (concentration: 6mM). For the same target, the NP40-soluble protein abundance (concentration: 8mM) stood at 1.16 ± 0.16 and the NP40-soluble protein abundance (concentration: 10mM) came to 1.29 ± 0.25.
In the case of RPIA (UniProt P49247), the NP40-soluble protein abundance runs as follows: (concentration: 0.1mM) 0.978 ± 0.023; (concentration: 0.5mM) 0.99 ± 0.028; (concentration: 1mM) 0.9319 ± 0.0082; (concentration: 2mM) 0.929 ± 0.025; (concentration: 4mM) 0.9125 ± 0.0033; (concentration: 6mM) 0.9167 ± 0.0083. Also, the NP40-soluble protein abundance is 0.874 ± 0.026 (concentration: 8mM) and 0.891 ± 0.037 (concentration: 10mM).

The values above are taken from the supplement of paper PMC6411743.
